Here are results for 2 molecules from PMC5534435, “The Amyloid Precursor Protein Is a Conserved Receptor for Slit to Mediate Axon Guidance” (eNeuro, 2017).

No constants are given. Whether binding was seen depends on the method and setting. In cells and extracts the contact can be indirect. A result given as binding can be weak or reduced; the word gives no strength. Sequences can lack the tags named with a protein.

The target in experiment [1] is T1, Human Slit2 tagged with c-Myc (Slit2-Myc) (human) (UniProt O94813).
T1 sequence: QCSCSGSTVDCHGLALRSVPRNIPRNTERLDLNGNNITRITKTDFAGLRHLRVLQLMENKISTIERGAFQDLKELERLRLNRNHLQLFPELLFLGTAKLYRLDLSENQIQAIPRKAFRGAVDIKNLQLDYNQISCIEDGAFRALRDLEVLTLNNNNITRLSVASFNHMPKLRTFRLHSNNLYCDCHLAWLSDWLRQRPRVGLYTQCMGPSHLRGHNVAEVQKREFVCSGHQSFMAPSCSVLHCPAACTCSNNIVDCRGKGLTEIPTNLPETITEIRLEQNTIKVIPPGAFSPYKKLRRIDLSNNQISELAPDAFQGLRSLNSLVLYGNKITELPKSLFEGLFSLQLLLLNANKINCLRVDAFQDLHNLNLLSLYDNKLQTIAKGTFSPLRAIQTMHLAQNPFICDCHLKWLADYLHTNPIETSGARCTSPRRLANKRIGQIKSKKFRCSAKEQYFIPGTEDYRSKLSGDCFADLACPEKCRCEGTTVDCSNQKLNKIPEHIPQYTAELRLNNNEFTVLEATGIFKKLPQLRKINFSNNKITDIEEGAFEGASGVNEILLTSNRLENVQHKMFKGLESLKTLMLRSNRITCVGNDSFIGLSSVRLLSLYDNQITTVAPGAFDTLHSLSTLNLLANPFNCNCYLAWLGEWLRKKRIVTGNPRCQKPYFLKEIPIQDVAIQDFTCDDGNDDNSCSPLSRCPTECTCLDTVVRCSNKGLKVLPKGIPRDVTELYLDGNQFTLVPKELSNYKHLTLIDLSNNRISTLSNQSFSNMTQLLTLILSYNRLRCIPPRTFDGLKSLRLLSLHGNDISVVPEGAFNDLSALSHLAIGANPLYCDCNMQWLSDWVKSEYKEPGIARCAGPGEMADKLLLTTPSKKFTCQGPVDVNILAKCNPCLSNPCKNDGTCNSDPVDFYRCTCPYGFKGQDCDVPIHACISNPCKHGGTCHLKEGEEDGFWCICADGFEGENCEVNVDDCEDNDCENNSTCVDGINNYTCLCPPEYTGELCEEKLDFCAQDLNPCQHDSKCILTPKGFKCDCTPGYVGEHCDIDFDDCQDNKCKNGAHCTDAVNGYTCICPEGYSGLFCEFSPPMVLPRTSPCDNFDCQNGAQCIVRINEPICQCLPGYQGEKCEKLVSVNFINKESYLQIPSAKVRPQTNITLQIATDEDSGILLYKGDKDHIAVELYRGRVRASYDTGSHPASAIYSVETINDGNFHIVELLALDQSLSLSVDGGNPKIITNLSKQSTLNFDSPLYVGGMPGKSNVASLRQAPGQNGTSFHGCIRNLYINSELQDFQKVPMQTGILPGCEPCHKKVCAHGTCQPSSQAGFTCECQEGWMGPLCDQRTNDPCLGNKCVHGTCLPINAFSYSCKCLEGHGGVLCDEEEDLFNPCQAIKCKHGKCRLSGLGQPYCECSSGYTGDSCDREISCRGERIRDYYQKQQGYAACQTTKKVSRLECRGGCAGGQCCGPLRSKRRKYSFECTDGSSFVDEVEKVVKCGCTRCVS
Nature of the experiment: co-IP; HEK293 cells transfected with the two constructs (single transfections as controls); IP with APPc, anti-HA or anti-Myc antibody, Western blot.

For a further experiment, the target named is APPΔE2 (human) (UniProt P05067). The description is as above.

For APPΔC (human) (domain or fragment), the binding result in experiment [1] is “binds”.

B1: FL Slit2 fused N terminally to the human alkaline phosphatase sequence (ligand, UniProt O94813 31-1529, looked up)
chain: T1 sequence
notes: Slit2, full length, put in place of Netrin 5 in the vector Ntn5.a-AP-His (Addgene); also called AP-tagged Slit2; alkaline phosphatase (AP)-tagged Slit2; source: HEK293T, transfected, in supernatant; not shown: alkaline phosphatase (human), C-terminal, kept
B1: the binding result in the experiment with APPΔE2 (human) is recorded as “binds”.
